Here are results for two molecules from paper PMC3668751, “Assembly of the Yeast Exoribonuclease Rrp6 with Its Associated Cofactor Rrp47 Occurs in the Nucleus and Is Critical for the Controlled Expression of Rrp47*” (The Journal of Biological Chemistry, 2013).

The chains behind the UniProt entries cited, without tags or fusion partners.
UniProt Q02821: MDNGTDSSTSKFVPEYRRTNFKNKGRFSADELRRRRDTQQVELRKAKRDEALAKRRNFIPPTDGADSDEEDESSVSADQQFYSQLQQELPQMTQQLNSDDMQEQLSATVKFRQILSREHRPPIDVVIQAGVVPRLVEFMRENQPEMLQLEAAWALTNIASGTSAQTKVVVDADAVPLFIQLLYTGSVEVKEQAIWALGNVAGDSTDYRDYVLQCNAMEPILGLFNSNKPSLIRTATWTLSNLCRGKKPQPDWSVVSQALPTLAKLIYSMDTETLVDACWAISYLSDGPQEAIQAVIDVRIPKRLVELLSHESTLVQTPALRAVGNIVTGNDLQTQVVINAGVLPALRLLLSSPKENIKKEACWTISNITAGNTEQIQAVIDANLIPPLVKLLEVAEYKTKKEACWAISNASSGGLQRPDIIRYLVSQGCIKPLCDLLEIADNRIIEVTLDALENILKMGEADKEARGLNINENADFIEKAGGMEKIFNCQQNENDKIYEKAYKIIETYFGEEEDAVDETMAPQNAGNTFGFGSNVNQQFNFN

Results are given in words; binding and its absence hold for the method and conditions named. For part of these data: In cells and extracts the contact can be indirect. Some binding calls cover weakened binding; strength is not graded here. For part of these data: Where a sequence is shown, tags or fusion partners need not be part of it.

Assay [1] deals with T1, epitope-tagged zz fusion of Rrp6 (S. cerevisiae) (UniProt Q12149).
T1 sequence: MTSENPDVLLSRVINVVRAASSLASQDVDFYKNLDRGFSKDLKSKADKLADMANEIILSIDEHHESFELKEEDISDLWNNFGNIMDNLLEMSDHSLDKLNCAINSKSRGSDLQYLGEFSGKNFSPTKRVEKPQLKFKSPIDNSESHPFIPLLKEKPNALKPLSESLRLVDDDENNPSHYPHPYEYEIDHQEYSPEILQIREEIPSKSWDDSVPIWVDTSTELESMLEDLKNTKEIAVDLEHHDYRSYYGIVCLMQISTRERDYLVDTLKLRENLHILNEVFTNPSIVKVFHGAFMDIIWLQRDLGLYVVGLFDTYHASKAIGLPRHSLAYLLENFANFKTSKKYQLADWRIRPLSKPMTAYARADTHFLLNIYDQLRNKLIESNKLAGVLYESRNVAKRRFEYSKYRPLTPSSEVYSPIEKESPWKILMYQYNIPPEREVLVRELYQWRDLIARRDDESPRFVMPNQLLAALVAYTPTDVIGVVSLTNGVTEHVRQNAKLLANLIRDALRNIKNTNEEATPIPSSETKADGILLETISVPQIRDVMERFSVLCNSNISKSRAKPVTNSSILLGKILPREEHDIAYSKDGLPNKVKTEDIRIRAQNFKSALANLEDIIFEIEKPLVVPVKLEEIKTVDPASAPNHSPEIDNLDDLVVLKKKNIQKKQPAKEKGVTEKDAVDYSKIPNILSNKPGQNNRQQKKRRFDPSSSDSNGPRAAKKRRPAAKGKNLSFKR
Description: pull-down; yeast cell extracts (10 mM Tris-HCl pH 7.6, 150 mM NaCl, 5 mM MgCl2) on IgG-Sepharose beads, eluted with 0.5 M acetic acid; Western blot with Srp1-specific antibody; non-tagged strain as control.

For assay [2], the target named is T2, epitope-tagged zz fusion of Rrp47 (S. cerevisiae) (UniProt P38801).
T2 sequence: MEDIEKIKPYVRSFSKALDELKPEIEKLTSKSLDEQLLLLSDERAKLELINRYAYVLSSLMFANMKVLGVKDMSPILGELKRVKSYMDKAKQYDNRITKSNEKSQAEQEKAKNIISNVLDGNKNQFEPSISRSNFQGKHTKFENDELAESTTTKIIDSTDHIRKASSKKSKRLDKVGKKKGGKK
The description is as above.

The target in assay [3] is C-terminally truncated Rrp47NT protein (S. cerevisiae) (UniProt P38801). The assay can be described thus: SEC; Superdex 200, 50 mM HEPES pH 7.6, 300 mM NaCl; Stokes radius against marker proteins, combined with the sedimentation coefficient or theoretical dimer masses; both purified. In general terms: SEC sorts molecules by how far they enter the pores of the column.

As to “Srp1 (yeast importin-α) (from UniProt Q02821 1-542)”, the binding result in assay [1] is listed as “binds”; in assay [2], “no binding”.

B1: C-terminally truncated Rrp47NT protein (domain or fragment, S. cerevisiae, UniProt P38801 1-120, looked up)
chain: MEDIEKIKPYVRSFSKALDELKPEIEKLTSKSLDEQLLLLSDERAKLELINRYAYVLSSLMFANMKVLGVKDMSPILGELKRVKSYMDKAKQYDNRITKSNEKSQAEQEKAKNIISNVLD
notes: Rrp47 (Lrp1), S. cerevisiae, N-terminal domain; the discussion gives it as the first 120 amino acid residues; it probably carries a His tag like the full-length protein; also called N-terminal domain of Rrp47; Rrp47NT polypeptide
Turning to B1, the binding result in assay [3] was “binds”.
